No constants are given. Whether binding was seen depends on the method and setting. Binding seen in cells or lysates may run through a third protein. Binding calls can cover weak binding; strength is not graded here.
Target: GST protein fused to CRIB domain from human PAK1B (human) (UniProt Q13153)
Assay: pull-down; purified GST-CRIB on glutathione-Sepharose beads incubated with hippocampal lysates of Cdc42f/f (control) and Cdc42f/f: Camk2a-Cre mice, 2 hr at 4°C; lysis buffer 150 mM NaCl, 25 mM HEPES pH 7.4, 1 mM EDTA, 0.5 mM EGTA, 0.5% NP-40; bound proteins detected by western blot for Cdc42 and Rac1; only the target purified

Chains of the proteins cited; added tags and fusions are not shown. Lines headed by an entry give the natural chain unless they say otherwise; changes in a name come on top.
UniProt Q13153: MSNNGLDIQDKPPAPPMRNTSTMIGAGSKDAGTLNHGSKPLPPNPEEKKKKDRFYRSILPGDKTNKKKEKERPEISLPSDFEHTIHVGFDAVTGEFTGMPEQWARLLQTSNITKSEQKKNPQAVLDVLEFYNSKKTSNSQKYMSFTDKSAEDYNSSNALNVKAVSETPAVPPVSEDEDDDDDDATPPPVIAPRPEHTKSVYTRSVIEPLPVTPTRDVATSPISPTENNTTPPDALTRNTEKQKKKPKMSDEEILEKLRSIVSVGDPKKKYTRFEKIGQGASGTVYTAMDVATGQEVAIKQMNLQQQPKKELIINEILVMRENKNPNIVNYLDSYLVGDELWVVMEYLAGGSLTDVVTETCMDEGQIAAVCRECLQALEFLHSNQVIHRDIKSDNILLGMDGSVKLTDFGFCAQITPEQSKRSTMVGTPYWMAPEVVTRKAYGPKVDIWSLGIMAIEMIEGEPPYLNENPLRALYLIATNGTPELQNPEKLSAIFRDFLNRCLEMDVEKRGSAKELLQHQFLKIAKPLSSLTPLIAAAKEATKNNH
UniProt P60766: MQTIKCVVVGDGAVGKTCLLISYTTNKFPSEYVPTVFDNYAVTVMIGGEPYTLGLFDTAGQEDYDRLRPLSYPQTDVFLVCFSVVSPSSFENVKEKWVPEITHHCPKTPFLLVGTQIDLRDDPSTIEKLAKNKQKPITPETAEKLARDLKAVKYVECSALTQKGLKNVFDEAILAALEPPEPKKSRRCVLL

binding: binds
Substance: Cdc42 (from UniProt P60766 1-191)

Source: article PMC4115656
